The test addresses T1, human FLAG-DONSON (wild type) (human) (UniProt Q9NYP3).
T1 sequence: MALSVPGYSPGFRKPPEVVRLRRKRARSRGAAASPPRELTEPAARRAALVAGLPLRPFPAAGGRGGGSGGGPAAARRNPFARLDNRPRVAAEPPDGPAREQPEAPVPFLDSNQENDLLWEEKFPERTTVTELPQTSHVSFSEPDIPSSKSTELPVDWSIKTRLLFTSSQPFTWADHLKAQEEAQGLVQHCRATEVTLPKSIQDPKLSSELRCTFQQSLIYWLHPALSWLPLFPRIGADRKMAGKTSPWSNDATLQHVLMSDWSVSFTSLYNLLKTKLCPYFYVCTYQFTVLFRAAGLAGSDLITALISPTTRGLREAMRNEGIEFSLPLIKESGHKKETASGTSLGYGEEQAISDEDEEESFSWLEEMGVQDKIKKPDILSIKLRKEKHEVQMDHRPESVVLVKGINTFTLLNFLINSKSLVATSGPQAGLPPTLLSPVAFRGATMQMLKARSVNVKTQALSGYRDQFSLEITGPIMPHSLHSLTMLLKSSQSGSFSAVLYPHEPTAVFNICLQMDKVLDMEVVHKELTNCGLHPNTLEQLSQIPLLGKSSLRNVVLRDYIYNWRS
In words: co-IP; FLAG-DONSON from wheat germ extract bound to anti-DYKDDDDK magnetic agarose and washed, then wheat germ extract expressing HA-NASP added in 2xELB-sucrose, 1 hour at 4 °C; eluted with FLAG peptide; immunoblot. (In general: Immunoblotting shows a protein as a band on a membrane.)

Amino acid sequences for entries named in this document (tags omitted).
UniProt P49321: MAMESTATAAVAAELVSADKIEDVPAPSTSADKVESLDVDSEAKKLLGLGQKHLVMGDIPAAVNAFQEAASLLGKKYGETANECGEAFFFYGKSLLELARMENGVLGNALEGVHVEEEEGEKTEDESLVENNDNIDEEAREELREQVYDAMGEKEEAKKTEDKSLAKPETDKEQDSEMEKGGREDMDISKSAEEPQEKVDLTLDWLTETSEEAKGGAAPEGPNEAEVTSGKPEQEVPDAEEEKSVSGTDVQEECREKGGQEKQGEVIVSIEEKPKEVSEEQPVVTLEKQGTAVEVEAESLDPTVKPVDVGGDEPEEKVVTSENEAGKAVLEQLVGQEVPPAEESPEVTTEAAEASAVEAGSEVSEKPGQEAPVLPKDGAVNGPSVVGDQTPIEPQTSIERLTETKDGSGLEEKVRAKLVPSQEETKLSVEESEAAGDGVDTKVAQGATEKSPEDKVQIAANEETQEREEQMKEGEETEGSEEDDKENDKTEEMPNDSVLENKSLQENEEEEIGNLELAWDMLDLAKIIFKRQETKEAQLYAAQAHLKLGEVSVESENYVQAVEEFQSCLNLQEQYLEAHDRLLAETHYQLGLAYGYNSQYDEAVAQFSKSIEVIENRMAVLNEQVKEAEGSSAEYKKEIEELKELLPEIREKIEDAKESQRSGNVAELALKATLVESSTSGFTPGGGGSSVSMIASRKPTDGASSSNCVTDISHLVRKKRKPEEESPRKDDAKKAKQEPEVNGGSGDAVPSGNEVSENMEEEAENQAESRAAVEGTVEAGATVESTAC

No constants are given. Whether binding was seen depends on the method and setting. In cells and extracts the contact can be indirect. Some binding calls cover weakened binding; strength is not graded here. Where a sequence is shown, tags or fusion partners need not be part of it.

As for “human HA-NASP (from UniProt P49321 1-788)”, the binding result is reported as “binds”.

The values are drawn from paper doi:10.1101/2025.11.10.687652.
